Our source for the binding values is article doi:10.1101/2022.11.10.516022.

The target of assay [1] is T1, Plin1SD (Plin1 S81, S222, S276 mutated to aspartate) (UniProt Q8CGN5).
T1 sequence: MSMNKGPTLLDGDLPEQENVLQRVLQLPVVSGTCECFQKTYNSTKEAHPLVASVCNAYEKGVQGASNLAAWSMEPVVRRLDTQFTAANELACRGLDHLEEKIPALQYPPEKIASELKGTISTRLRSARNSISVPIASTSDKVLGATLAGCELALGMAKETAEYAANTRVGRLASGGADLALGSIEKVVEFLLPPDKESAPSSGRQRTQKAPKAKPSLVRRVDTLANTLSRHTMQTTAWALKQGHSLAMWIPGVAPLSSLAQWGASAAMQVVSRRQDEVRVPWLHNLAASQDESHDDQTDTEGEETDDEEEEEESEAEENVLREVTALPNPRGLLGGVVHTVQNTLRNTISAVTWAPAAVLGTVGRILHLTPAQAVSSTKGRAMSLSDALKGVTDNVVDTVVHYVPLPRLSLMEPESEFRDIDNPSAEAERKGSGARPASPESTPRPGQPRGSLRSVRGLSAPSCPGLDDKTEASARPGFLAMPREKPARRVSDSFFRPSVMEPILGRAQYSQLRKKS
In words: co-IP.

Assay [2] addresses T2, Myc-tagged full-length Plin1 (F-Plin1) (UniProt Q8CGN5).
T2 sequence: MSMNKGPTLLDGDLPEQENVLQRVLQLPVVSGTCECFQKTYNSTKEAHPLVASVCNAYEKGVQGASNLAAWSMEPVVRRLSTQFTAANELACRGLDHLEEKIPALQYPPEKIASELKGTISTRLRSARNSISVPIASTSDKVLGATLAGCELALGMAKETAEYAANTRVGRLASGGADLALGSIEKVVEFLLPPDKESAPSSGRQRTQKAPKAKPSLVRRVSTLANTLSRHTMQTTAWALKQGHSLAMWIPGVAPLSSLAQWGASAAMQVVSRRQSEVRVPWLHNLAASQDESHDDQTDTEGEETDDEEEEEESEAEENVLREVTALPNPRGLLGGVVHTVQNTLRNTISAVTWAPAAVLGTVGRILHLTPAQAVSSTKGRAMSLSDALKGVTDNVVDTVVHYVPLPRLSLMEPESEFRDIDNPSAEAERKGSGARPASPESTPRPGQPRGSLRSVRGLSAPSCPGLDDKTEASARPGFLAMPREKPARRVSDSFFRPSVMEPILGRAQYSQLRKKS
In words: co-IP.

Assay [3] concerns the target T3, endogenous Perilipin 1 (Plin1) (mouse (endogenous in WAT and 3T3-L1 adipocytes)) (UniProt Q8CGN5).
T3 sequence: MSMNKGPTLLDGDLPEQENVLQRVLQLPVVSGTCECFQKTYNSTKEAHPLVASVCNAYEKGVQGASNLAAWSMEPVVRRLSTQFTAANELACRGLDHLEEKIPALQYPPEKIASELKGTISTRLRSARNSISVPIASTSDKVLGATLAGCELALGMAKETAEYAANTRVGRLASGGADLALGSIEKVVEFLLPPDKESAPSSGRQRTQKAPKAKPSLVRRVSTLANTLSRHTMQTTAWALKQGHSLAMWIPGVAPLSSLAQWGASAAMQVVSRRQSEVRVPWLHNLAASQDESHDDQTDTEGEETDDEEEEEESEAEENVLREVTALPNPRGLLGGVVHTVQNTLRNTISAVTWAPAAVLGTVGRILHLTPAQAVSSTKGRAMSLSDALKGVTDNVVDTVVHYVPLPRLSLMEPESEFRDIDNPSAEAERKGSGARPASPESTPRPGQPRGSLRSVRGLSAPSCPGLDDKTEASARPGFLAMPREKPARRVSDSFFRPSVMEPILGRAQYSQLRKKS
Put plainly: co-IP.

The target of assay [4] is ApoL6-HA overexpressed in differentiated 3T3-L1 adipocytes (mouse). Put plainly: co-IP.
Assay [5] concerns the target Myc-tagged ApoL6 (aP2-ApoL6 TG transgene) (mouse). In words: co-IP.
In assay [6] the target is endogenous ApoL6 (mouse (endogenous in WAT)). In words: co-IP.
For assay [7], the target named is HA-tagged ApoL6 (adipoQ-ApoL6 TG transgene) (mouse). Put plainly: co-IP.
The target in another assay is ApoL6-cVenus (mouse). Put plainly: split reporter.

No constants are given. Whether binding was seen depends on the method and setting. Binding seen in cells or lysates may run through a third protein. A result given as binding can be weak or reduced; the word gives no strength. For some assays here: Sequences can lack the tags named with a protein.

As for “ApoL6-GST (GST-tagged full-length ApoL6) (mouse)”, the binding entry in assay [1] and in assay [2] was “binds” in each case.
Consider “Myc-tagged ApoL6 (aP2-ApoL6 TG transgene) (mouse)”, for which, in assay [3], the binding result was “binds”.

B1: endogenous Perilipin 1 (Plin1) (protein, UniProt Q8CGN5 1-517)
chain: MSMNKGPTLLDGDLPEQENVLQRVLQLPVVSGTCECFQKTYNSTKEAHPLVASVCNAYEKGVQGASNLAAWSMEPVVRRLSTQFTAANELACRGLDHLEEKIPALQYPPEKIASELKGTISTRLRSARNSISVPIASTSDKVLGATLAGCELALGMAKETAEYAANTRVGRLASGGADLALGSIEKVVEFLLPPDKESAPSSGRQRTQKAPKAKPSLVRRVSTLANTLSRHTMQTTAWALKQGHSLAMWIPGVAPLSSLAQWGASAAMQVVSRRQSEVRVPWLHNLAASQDESHDDQTDTEGEETDDEEEEEESEAEENVLREVTALPNPRGLLGGVVHTVQNTLRNTISAVTWAPAAVLGTVGRILHLTPAQAVSSTKGRAMSLSDALKGVTDNVVDTVVHYVPLPRLSLMEPESEFRDIDNPSAEAERKGSGARPASPESTPRPGQPRGSLRSVRGLSAPSCPGLDDKTEASARPGFLAMPREKPARRVSDSFFRPSVMEPILGRAQYSQLRKKS
On to B1, for which the binding entry in assay [4], in assay [5], in assay [6] and in assay [7] was “binds” in each case.

B2: Perilipin 1-nVenus (protein, UniProt Q8CGN5 1-517)
chain: MSMNKGPTLLDGDLPEQENVLQRVLQLPVVSGTCECFQKTYNSTKEAHPLVASVCNAYEKGVQGASNLAAWSMEPVVRRLSTQFTAANELACRGLDHLEEKIPALQYPPEKIASELKGTISTRLRSARNSISVPIASTSDKVLGATLAGCELALGMAKETAEYAANTRVGRLASGGADLALGSIEKVVEFLLPPDKESAPSSGRQRTQKAPKAKPSLVRRVSTLANTLSRHTMQTTAWALKQGHSLAMWIPGVAPLSSLAQWGASAAMQVVSRRQSEVRVPWLHNLAASQDESHDDQTDTEGEETDDEEEEEESEAEENVLREVTALPNPRGLLGGVVHTVQNTLRNTISAVTWAPAAVLGTVGRILHLTPAQAVSSTKGRAMSLSDALKGVTDNVVDTVVHYVPLPRLSLMEPESEFRDIDNPSAEAERKGSGARPASPESTPRPGQPRGSLRSVRGLSAPSCPGLDDKTEASARPGFLAMPREKPARRVSDSFFRPSVMEPILGRAQYSQLRKKS
B2: the binding entry in the assay with ApoL6-cVenus (mouse) is “binds”.
